# Assay results from the supplement of paper PMC12067093, “Discovery and optimisation of a covalent ligand for TRIM25 and its application to targeted protein ubiquitination” (Chemical Science, 2025).
# Protein sequences, listed by entry. Tags and fused reporters are not part of them. Lines headed by an entry give the natural chain unless they say otherwise; changes in a name come on top.
# UniProt P15291: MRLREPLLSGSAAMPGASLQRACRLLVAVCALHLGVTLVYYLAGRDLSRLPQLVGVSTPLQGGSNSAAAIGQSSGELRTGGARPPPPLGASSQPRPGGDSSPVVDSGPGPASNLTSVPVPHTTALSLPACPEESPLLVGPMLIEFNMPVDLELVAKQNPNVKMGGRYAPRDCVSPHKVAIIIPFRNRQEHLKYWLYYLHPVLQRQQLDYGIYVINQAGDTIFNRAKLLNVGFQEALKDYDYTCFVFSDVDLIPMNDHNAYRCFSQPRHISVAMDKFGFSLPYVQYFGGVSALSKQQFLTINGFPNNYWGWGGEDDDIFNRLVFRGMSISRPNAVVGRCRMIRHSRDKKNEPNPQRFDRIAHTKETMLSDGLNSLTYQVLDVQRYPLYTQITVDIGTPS
# UniProt Q8NFC6: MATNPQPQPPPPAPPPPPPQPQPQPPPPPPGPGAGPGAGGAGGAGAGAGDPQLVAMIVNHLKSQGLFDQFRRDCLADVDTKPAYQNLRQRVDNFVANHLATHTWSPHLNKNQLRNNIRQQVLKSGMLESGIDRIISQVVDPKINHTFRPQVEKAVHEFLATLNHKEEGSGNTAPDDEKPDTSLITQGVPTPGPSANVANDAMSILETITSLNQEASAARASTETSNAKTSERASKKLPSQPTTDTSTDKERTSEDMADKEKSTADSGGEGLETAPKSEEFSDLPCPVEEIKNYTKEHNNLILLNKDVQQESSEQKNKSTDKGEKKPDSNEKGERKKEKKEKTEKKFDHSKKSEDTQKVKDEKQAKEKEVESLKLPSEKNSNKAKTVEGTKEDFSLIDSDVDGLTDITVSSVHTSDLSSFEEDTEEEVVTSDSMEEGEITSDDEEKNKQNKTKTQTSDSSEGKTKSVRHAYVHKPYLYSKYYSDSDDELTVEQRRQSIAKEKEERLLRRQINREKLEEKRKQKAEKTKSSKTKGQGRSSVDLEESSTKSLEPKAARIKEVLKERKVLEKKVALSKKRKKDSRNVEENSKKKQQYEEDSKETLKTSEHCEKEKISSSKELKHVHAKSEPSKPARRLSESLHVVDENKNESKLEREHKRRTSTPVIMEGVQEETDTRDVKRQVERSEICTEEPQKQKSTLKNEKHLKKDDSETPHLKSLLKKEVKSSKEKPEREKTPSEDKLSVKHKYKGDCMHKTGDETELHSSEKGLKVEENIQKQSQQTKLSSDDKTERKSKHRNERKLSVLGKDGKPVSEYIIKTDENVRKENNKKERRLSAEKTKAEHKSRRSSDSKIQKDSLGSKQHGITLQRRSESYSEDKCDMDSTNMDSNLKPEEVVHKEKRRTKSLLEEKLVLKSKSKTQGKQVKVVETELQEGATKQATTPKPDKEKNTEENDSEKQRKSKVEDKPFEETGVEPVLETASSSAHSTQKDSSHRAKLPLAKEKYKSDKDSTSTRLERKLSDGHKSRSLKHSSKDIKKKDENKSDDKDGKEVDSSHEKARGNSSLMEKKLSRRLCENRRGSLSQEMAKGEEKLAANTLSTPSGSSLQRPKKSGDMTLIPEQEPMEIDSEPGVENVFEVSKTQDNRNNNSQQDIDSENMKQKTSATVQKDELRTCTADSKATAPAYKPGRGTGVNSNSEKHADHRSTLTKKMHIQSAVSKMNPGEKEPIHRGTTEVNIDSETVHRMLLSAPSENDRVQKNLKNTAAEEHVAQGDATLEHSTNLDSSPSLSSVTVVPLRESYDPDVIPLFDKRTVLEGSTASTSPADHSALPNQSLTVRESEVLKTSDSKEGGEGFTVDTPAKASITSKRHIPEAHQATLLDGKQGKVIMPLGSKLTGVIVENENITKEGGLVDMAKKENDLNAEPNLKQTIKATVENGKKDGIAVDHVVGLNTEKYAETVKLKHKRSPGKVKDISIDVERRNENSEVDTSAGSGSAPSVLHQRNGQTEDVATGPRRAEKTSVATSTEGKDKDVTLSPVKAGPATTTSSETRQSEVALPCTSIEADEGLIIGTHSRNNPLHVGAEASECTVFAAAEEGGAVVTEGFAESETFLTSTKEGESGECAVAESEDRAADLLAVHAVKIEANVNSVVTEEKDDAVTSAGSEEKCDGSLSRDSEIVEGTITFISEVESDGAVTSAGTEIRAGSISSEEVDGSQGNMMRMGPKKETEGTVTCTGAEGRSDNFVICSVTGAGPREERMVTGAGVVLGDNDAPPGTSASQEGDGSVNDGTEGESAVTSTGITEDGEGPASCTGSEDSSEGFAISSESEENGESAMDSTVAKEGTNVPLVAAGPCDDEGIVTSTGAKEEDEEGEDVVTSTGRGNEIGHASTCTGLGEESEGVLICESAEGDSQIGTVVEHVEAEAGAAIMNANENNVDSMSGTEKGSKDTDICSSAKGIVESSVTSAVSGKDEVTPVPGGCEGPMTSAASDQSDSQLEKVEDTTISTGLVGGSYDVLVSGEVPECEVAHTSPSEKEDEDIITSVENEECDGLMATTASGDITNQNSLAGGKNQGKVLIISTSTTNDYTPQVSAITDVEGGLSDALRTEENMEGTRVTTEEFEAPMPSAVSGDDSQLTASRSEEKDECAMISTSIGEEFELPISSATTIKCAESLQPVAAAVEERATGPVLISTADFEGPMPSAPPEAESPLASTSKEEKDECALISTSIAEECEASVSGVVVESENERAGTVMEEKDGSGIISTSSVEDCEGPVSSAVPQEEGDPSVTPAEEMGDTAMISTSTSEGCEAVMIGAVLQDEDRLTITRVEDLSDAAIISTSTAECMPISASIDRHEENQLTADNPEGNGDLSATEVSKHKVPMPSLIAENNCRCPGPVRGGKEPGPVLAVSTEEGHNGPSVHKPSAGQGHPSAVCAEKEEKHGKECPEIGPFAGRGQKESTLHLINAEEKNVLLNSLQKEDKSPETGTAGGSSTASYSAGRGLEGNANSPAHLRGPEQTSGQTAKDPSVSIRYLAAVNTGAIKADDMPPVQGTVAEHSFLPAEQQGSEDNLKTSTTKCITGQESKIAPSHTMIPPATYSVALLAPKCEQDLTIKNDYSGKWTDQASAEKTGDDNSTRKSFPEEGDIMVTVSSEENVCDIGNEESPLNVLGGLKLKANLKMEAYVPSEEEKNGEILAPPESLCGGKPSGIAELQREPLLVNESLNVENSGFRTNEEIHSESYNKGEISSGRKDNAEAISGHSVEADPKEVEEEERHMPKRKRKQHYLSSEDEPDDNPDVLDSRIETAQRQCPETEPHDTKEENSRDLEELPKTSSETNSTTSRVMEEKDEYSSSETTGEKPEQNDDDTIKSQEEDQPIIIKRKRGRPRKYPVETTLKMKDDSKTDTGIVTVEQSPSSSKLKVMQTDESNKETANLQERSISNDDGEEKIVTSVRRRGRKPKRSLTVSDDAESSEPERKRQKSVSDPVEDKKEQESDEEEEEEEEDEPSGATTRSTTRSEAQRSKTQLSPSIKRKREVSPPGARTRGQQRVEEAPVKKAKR
# UniProt O75531: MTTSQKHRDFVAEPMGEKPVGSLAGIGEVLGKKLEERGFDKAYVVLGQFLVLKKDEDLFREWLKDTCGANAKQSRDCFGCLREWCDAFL
# UniProt Q7Z569: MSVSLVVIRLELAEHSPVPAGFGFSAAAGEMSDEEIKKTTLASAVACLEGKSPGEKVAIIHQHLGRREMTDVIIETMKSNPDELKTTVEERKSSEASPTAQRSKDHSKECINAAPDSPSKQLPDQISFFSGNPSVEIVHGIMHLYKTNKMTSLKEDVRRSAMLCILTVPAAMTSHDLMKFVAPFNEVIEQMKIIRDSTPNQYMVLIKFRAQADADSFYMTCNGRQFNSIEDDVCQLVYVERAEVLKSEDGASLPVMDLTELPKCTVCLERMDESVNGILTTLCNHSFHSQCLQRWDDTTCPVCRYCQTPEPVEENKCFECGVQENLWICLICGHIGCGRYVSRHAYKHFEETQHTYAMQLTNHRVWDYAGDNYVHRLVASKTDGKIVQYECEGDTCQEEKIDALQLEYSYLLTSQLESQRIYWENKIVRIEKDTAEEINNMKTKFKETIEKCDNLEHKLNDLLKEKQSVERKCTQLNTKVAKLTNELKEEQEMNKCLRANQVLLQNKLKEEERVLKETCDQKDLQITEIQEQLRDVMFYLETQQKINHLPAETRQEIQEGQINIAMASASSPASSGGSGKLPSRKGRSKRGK
# UniProt Q9UL15: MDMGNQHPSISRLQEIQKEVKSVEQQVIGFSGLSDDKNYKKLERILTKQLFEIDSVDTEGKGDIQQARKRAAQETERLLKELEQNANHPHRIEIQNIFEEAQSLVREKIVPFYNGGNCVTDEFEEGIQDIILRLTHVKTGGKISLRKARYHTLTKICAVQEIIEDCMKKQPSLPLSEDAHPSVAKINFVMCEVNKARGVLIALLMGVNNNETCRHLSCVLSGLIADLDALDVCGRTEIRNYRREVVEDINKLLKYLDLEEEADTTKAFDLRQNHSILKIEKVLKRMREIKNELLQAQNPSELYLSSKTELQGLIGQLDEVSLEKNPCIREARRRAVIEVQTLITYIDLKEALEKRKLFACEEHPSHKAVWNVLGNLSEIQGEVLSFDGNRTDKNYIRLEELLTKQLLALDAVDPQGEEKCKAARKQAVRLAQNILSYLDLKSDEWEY
# UniProt Q13323: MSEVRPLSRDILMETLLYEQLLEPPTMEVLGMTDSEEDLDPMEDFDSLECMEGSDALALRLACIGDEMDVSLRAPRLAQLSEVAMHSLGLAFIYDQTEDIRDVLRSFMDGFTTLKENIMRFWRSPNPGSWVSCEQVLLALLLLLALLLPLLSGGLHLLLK
# UniProt Q8IXM2, whole entry, looked up: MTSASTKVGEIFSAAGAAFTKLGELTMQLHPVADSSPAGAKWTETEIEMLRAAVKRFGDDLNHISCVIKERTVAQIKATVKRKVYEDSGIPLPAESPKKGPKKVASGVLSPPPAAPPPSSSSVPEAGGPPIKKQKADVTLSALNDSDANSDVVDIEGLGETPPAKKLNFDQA
# UniProt Q9NRL2: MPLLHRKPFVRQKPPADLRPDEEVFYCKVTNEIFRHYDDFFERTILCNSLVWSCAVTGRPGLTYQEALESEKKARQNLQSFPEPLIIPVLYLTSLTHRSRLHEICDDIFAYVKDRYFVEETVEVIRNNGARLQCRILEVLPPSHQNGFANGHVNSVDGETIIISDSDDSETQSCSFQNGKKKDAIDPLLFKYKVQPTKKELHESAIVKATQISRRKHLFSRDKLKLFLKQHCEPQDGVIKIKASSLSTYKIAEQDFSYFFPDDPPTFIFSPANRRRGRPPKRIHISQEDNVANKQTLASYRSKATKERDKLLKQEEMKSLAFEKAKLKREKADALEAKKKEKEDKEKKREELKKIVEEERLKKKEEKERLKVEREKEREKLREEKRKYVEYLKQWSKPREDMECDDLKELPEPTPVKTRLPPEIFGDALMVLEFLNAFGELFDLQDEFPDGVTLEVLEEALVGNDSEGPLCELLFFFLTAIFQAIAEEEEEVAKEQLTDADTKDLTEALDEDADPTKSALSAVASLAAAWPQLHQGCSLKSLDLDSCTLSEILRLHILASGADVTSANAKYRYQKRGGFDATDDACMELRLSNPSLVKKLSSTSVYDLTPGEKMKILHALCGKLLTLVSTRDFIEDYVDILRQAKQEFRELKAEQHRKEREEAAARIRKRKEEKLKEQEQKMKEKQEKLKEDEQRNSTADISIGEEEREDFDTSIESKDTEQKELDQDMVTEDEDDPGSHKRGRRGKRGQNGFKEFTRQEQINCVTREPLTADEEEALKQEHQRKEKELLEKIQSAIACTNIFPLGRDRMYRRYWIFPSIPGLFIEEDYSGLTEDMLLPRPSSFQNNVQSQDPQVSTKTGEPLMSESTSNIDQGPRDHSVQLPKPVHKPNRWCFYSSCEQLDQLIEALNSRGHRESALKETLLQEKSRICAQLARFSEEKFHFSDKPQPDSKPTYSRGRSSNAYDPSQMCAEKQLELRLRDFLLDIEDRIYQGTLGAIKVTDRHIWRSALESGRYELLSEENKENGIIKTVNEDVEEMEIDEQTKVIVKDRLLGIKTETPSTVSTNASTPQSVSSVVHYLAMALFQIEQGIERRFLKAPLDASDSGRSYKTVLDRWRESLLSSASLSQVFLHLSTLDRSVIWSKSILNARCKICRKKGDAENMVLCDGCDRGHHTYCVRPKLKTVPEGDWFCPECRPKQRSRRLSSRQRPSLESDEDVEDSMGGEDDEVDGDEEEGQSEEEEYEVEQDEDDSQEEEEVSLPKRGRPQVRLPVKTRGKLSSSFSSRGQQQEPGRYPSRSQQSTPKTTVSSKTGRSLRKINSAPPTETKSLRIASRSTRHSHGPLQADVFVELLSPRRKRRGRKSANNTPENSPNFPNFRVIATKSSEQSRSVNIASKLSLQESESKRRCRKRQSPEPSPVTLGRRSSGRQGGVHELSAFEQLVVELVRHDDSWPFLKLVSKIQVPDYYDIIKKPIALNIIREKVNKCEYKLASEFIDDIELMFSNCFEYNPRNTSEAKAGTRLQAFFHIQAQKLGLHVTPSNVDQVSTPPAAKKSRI
# This is one part of the list.
# Compound: Cc1cc(ccc1-c1ccccc1)C(=O)N1CCCN(CC1)C(=O)CCl [compound 10]
# Test: probe-labelled cysteine peptide fold change vs DMSO (competition) (log2 fold change); higher = less target engagement (more negative = stronger competition)
# Conditions: THP-1, incubation time: 4 h
# 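Further: competitive profiling in live THP-1 cells: cysteine peptides tagged with an iodoacetamide desthiobiotin (IA-DTB) probe, intensity after compound treatment relative to DMSO-treated cells.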
target,measurement,setting,value
BAHD1_Q8TBE0_598_TNGWVPVGAACEK (UniProt Q8TBE0),probe-labelled cysteine peptide fold change,10 µM,0.00869
same,probe-labelled cysteine peptide fold change,50 µM,0.181
B3GALT6_Q96L58_271_GCSNQYLVTHK (UniProt Q96L58),probe-labelled cysteine peptide fold change,10 µM,-0.144
same,probe-labelled cysteine peptide fold change,50 µM,0.0773
BCKDK_O14874_152_DQADEAQYCQLVR (UniProt O14874),probe-labelled cysteine peptide fold change,10 µM,-0.0953
same,probe-labelled cysteine peptide fold change,50 µM,-0.00515
B4GALT1_P15291_262_CFSQPR (UniProt P15291),probe-labelled cysteine peptide fold change,10 µM,-0.177
same,probe-labelled cysteine peptide fold change,50 µM,-0.0791
BCL10_O95999_57_ILSREDTEEISCR (UniProt O95999),probe-labelled cysteine peptide fold change,10 µM,-0.0733
same,probe-labelled cysteine peptide fold change,50 µM,-0.324
BOD1L1_Q8NFC6_2164_CAESLQPVAAAVEER (UniProt Q8NFC6),probe-labelled cysteine peptide fold change,10 µM,-0.567
same,probe-labelled cysteine peptide fold change,50 µM,-0.0846
BABAM1_Q9NWV8_294_YEVALAGPALELHNCMAK (UniProt Q9NWV8),probe-labelled cysteine peptide fold change,10 µM,0.177
same,probe-labelled cysteine peptide fold change,50 µM,0.145
BANF1_O75531_67_DTCGANAK (UniProt O75531),probe-labelled cysteine peptide fold change,10 µM,0.317
same,probe-labelled cysteine peptide fold change,50 µM,-0.0655
BLVRB_P30043_109_VVACTSAFLLWDPTK (UniProt P30043),probe-labelled cysteine peptide fold change,10 µM,0.133
same,probe-labelled cysteine peptide fold change,50 µM,0.519
AZU1_P20160_68_FVMTAASCFQSQNPGVSTVVLGAYDLR (UniProt P20160),probe-labelled cysteine peptide fold change,10 µM,-0.178
same,probe-labelled cysteine peptide fold change,50 µM,0.337
BAIAP2_Q9UQB8_195_FCFLVEK (UniProt Q9UQB8),probe-labelled cysteine peptide fold change,10 µM,-0.193
same,probe-labelled cysteine peptide fold change,50 µM,-0.118
BRAP_Q7Z569_519_ETCDQK (UniProt Q7Z569),probe-labelled cysteine peptide fold change,10 µM,-0.0471
same,probe-labelled cysteine peptide fold change,50 µM,-0.166
AURKB_Q96GD4_170_SCTFDEQR (UniProt Q96GD4),probe-labelled cysteine peptide fold change,10 µM,-0.0608
same,probe-labelled cysteine peptide fold change,50 µM,0.205
BRAP_Q7Z569_47_TTLASAVACLEGK (UniProt Q7Z569),probe-labelled cysteine peptide fold change,10 µM,-0.252
same,probe-labelled cysteine peptide fold change,50 µM,-0.245
BAG5_Q9UL15_157_ICAVQEIIEDCMK (UniProt Q9UL15),probe-labelled cysteine peptide fold change,10 µM,-0.0116
same,probe-labelled cysteine peptide fold change,50 µM,0.0188
BIK_Q13323_63_LACIGDEMDVSLR (UniProt Q13323),probe-labelled cysteine peptide fold change,10 µM,-0.093
same,probe-labelled cysteine peptide fold change,50 µM,0.428
BAZ1B_Q9UIG0_1202_LILCDECNK (UniProt Q9UIG0),probe-labelled cysteine peptide fold change,10 µM,0.0976
same,probe-labelled cysteine peptide fold change,50 µM,0.283
BCOR_Q6W2J9_1044_DSEMCK (UniProt Q6W2J9),probe-labelled cysteine peptide fold change,10 µM,-0.557
same,probe-labelled cysteine peptide fold change,50 µM,-0.526
B4GALT3_O60512_209_EALRDEEWDCLFLHDVDLLPENDHNLYVCDPR (UniProt O60512),probe-labelled cysteine peptide fold change,10 µM,-0.204
same,probe-labelled cysteine peptide fold change,50 µM,0.195
BOD1L1_Q8NFC6_2384_HKVPMPSLIAENNCR (UniProt Q8NFC6),probe-labelled cysteine peptide fold change,10 µM,-0.187
same,probe-labelled cysteine peptide fold change,50 µM,-0.276
BCAR1_P56945_46_KGDIMTVLEQDTQGLDGWWLCSLHGR (UniProt P56945),probe-labelled cysteine peptide fold change,10 µM,0.292
same,probe-labelled cysteine peptide fold change,50 µM,-0.0071
BAP18_Q8IXM2_66_RFGDDLNHISCVIK (UniProt Q8IXM2),probe-labelled cysteine peptide fold change,10 µM,0.146
same,probe-labelled cysteine peptide fold change,50 µM,-0.147
B4GALT1_P15291_172_DCVSPHK (UniProt P15291),probe-labelled cysteine peptide fold change,10 µM,-0.221
same,probe-labelled cysteine peptide fold change,50 µM,-0.0203
BCAT1_P54687_140_EELLECIQQLVK (UniProt P54687),probe-labelled cysteine peptide fold change,10 µM,0.26
same,probe-labelled cysteine peptide fold change,50 µM,0.65
BANF1_O75531_80_DCFGCLR (UniProt O75531),probe-labelled cysteine peptide fold change,10 µM,0.231
same,probe-labelled cysteine peptide fold change,50 µM,-0.00332
BDH1_Q02338_86_GFLVFAGCLMK (UniProt Q02338),probe-labelled cysteine peptide fold change,10 µM,-0.408
same,probe-labelled cysteine peptide fold change,50 µM,0.234
AVEN_Q9NQS1_251_SVAAGCPVLLGK (UniProt Q9NQS1),probe-labelled cysteine peptide fold change,10 µM,-0.0473
same,probe-labelled cysteine peptide fold change,50 µM,-0.58
BLMH_Q13867_40_LNSDPQFVLAQNVGTTHDLLDICLK (UniProt Q13867),probe-labelled cysteine peptide fold change,10 µM,0.0304
same,probe-labelled cysteine peptide fold change,50 µM,0.35
BIRC6_Q9NR09_4183_HAQCLLR (UniProt Q9NR09),probe-labelled cysteine peptide fold change,10 µM,0.135
same,probe-labelled cysteine peptide fold change,50 µM,-0.121
BLM_P54132_318_CLSTLK (UniProt P54132),probe-labelled cysteine peptide fold change,10 µM,-0.0405
same,probe-labelled cysteine peptide fold change,50 µM,-0.0942
BAZ2A_Q9UIF9_1697_GDNDEFLLLCDGCDR (UniProt Q9UIF9),probe-labelled cysteine peptide fold change,10 µM,0.096
same,probe-labelled cysteine peptide fold change,50 µM,-0.246
BOD1L1_Q8NFC6_1170_TCTADSK (UniProt Q8NFC6),probe-labelled cysteine peptide fold change,10 µM,-0.153
same,probe-labelled cysteine peptide fold change,50 µM,-0.337
BRAT1_Q6PJG6_289_ALSCLGPTHMGPLALGILK (UniProt Q6PJG6),probe-labelled cysteine peptide fold change,10 µM,-0.319
same,probe-labelled cysteine peptide fold change,50 µM,-0.856
BAZ1A_Q9NRL2_893+898_WCFYSSCEQLDQLIEALNSR (UniProt Q9NRL2),probe-labelled cysteine peptide fold change,10 µM,-0.092
same,probe-labelled cysteine peptide fold change,50 µM,-0.295
BIN1_O00499_47_ADETKDEQFEQCVQNFNK (UniProt O00499),probe-labelled cysteine peptide fold change,10 µM,0.0224
same,probe-labelled cysteine peptide fold change,50 µM,-0.229
BAZ1A_Q9NRL2_764_QEQINCVTREPLTADEEEALKQEHQR (UniProt Q9NRL2),probe-labelled cysteine peptide fold change,10 µM,-0.206
same,probe-labelled cysteine peptide fold change,50 µM,-1.01
BPNT1_O95861_100_QPCPSQYSAIKEEDLVVWVDPLDGTK (UniProt O95861),probe-labelled cysteine peptide fold change,10 µM,-0.0812
same,probe-labelled cysteine peptide fold change,50 µM,-0.394
ATXN10_Q9UBB4_84_SSHAVELACRDPSQVENLASSLQLITECFR (UniProt Q9UBB4),probe-labelled cysteine peptide fold change,10 µM,0.507
same,probe-labelled cysteine peptide fold change,50 µM,0.322
BRAT1_Q6PJG6_228_CQSPWTEALWVR (UniProt Q6PJG6),probe-labelled cysteine peptide fold change,10 µM,-0.354
same,probe-labelled cysteine peptide fold change,50 µM,-0.793

# Part of the list above, with tabs.
target	measurement	setting	value
BAG5_Q9UL15_157_ICAVQEIIEDCMK (UniProt Q9UL15)	probe-labelled cysteine peptide fold change	10 µM	-0.0116
same	probe-labelled cysteine peptide fold change	50 µM	0.0188
BIK_Q13323_63_LACIGDEMDVSLR (UniProt Q13323)	probe-labelled cysteine peptide fold change	10 µM	-0.093
